Source: PMC12142043, “Cell-based high-content approach for SARS-CoV-2 neutralization identifies unique monoclonal antibodies and PI3K pathway inhibitors” (Frontiers in Cell and Developmental Biology, 2025)

Tested on: SARS-CoV-2 (USA-WA1/2020) in Calu-3 cells
Format: cell-based

## Nc1ccc(C(=O)Nc2cccc(-c3nc(N4CCOCC4)c4oc5ncccc5c4n3)c2)cn1 [YM201636]
  dsRNA signal, AU High: 7268.3
  dsRNA signal, AU Low: 43298.6
